Laboratory results published in PubChem BioAssay AID1508600 (Functional Genomics Laboratory (NCATS/FGL), 2020).
The campaign covered roughly 53,000 sequences. About 3,700 (7%) were called active.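 Rule for the calls: active = gene knockdowns whose robust z-score for IL-1 alpha signal is at least 2 or at most -2, so actives lie on both sides; inactive = the rest.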 The list shows a part of the results.

Assay: Components of the Cytosolic LPS Sensing Pathway: Gene Identification via Genome-wide siRNA Screen;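 note: robust z of the log signal after scaling to non-targeting control siRNA wells of the plate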
Conditions: RAW264.7 macrophages, IL-1a HTRF, actives lie on both sides, screened at 100 nM (by protocol), cells primed 5 h with Pam3CSK4 first
In short: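 Using IL-1a HTRF as read-out, the screen measured release from RAW264.7 cells after 48h siRNA knockdown (100 nM), 5 h Pam3CSK4 priming and 24 h cytosolic LipidA. Values were expressed relative to negative-control wells as robust z-scores.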

| Sequence | z-score |
| --- | --- |
| CCCUCAUACCGCUUAGAACTT against Tctex1d4 | inactive: -0.786 |
| GGACCAUGUGGACUUUAGCTT against Sema7a | inactive: -0.522 |
| GGUGAAAGAGAAGACUGAATT against Aimp1 | inactive: -0.418 |
| GGAACUCAAAUUGAAAAGGTT against Manea | inactive: -0.135 |
| GGUGUAGGCUGUCCAAUAATT against Rtel1 | inactive: 0.74 |
| GGGAUGACUUUAAUAUCAATT against Cyth3 | inactive: -0.72 |
| GCAAGAACAUUAUGAAAGUTT against Epb41 | inactive: 0.905 |
| GGAGACAAACAAAAUCAUCTT against Sbsn | inactive: -0.885 |
| GGCACUAAUUGAAGAAUUUTT against 4930544G11Rik | inactive: 0.151 |
| CGUUCACCGUCUCCAAGUATT against Cav3 | inactive: -1.62 |
| GGGCAGAAGUCGUGUUUCUTT against Abhd14a | inactive: -0.243 |
| GGAACUUCCUGUUCAGAAATT against Eci3 | inactive: 0.881 |
| GGUCAUGGAAGAUUCCAAGTT against Atp6v1c2 | inactive: 0.843 |
| GCACAAGACUAACAAUACGTT against Sptbn2 | inactive: -1.26 |
| GCCACUCACUAUGCUACUCTT against Pnpla2 | active: -2.62 |
| GGGCCAAAACAAUUAAGAATT against Kif5b | inactive: 0.412 |
| CCUAAUUUCCUAGAUCUUCTT against Rtp1 | inactive: -0.439 |
| CCCAAAUACUCCAAUUAUATT against Fzd3 | inactive: 0.289 |
| GGCAGAAAGACAUUUUCUUTT against Ift80 | active: -2.53 |
| GGCUCUGUUUAUCCUGGAGTT against Pcdha7 | inactive: -0.0385 |
| GGACCUCGAUCUCUCUUAUTT against Lrfn3 | inactive: -0.354 |
| GCUCACCCAACAAUAUCCATT against Slc17a8 | inactive: -0.881 |

| Sequence | z-score |
| --- | --- |
| GGUCAGCUUCAGAGAAAACTT against Aire | inactive: -0.411 |
| AACUCGUGUGCAACGUGGUTT against Tctex1d4 | inactive: 0.79 |
| GCCAUUGGGUGUAACAUUUTT against Mpp6 | active: 3.35 |
| GGGCUACUCAGCCUAUAGUTT against Asic4 | inactive: 1.22 |
| CCCUUGACACUUAAUAAAGTT against Zfpm1 | inactive: -0.875 |
| GCGCAAUACGUGGGUUUGUTT against Shisal2b | inactive: 0.254 |
| GGUCCAAAGAAAGACCCAUTT against Cypt4 | inactive: -0.131 |
| GGUCCUCAUGGGCAACAUUTT against Olfr624 | inactive: -1.69 |
| CCAUGAAGUAUGGAACAACTT against Mccc1 | inactive: -0.74 |
| GGUGUUGGUGAACGUAAAGTT against Eif3i | inactive: -1.45 |
| GGCGGCCUAUAUGAGGUUCTT against Cftr | inactive: 0.548 |
| GGAGCUAGUAUGUUCAACATT against Ubqln1 | inactive: -0.942 |
| GGAGUUAUCCGUAUUAGUGTT against Sbno2 | inactive: -0.21 |
| CCUGUAAGAACCUUGCCUATT against Sytl3 | inactive: 0.733 |
| GGGAAAAUAACGGUGAAUATT against Hspb8 | inactive: -0.386 |
| CCCAGCAUGGAUCAAGCACTT against Krt73 | inactive: 0.864 |
| GCACAUCGAAAAUGCCCUGTT against Cpt1c | inactive: -0.154 |
| CGAACUGGGCAGUAUAAACTT against Fgf2 | inactive: 0.964 |
| GGGAGCAUCAGUUAAUUUUTT against Yes1 | inactive: 0.482 |
| GGAUAACCCUCAGAAGUCCTT against Was | inactive: 0.664 |
| CCGUCAUCUGCUCUGAUUUTT against Cd5 | inactive: -0.121 |
| GGGUCUUCUUCCUGAGUGUTT against Ak8 | inactive: -1.67 |

| Sequence | z-score |
| --- | --- |
| CGAGUUUAAAGACCUGGAGTT against Gjb6 | inactive: 1.09 |
| GGACUUGAAAUUAGCAAAATT against Arhgef3 | inactive: -0.0218 |
| GGAUGUCAGGCUUUGUACATT against Alg6 | inactive: 0.848 |
| GCGGGACUACACUCUUAAGTT against Car15 | inactive: 0.575 |
| GGCAGUGGACCACAUCAACTT against Eno2 | inactive: -0.253 |
| GUGGUUGAACGGGAAUUUGTT against Gm11487 | inactive: 0.542 |
| GAAGGAAGUUGGAAAGAACTT against Bcl2a1c | inactive: 0.195 |
| GGUGCACUACACCACAAACTT against Stbd1 | inactive: 0.169 |
| GCGAGUUCGGAAGAAGUAUTT against Ddx41 | inactive: -0.198 |
| GCUGGUUACUCCCAAGACGTT against Dlgap2 | active: 2.18 |
| GGGUCCUCUCCACAUCAAGTT against Iba57 | inactive: 0.224 |
| CCUCCAAGACUUAAAAGUATT against Csde1 | inactive: 0.776 |
| GAAGAGCAAGCCAUUUGAUTT against Lipi | inactive: -0.443 |
| GGGAUGGUAACAGGAAGUGTT against A530016L24Rik | inactive: 1.32 |
| GGCACUUGCUCAUUCAUUCTT against Zbtb10 | inactive: 1.34 |
| GCAACUUACAAGCAGGCCGTT against Fcgr3 | inactive: -0.199 |
| CCACGUCCUCUACUUGUAUTT against Nmbr | inactive: -0.813 |
| GCCUAGUCCACUUUAUCCUTT against Def8 | inactive: -1.22 |
| GGACCAACCUUAUAUGAAATT against Brix1 | inactive: 1.04 |
| GCUGUGGUACAACCACAUUTT against Lrrc8a | inactive: -0.244 |
| GCUAUGUAACACACCGCUGTT against Ticam1 | inactive: -1.24 |
| GGAGAAGAUGUCAUCCAGATT against Zfp467 | inactive: -0.37 |

| Sequence | z-score |
| --- | --- |
| GGGACCUAAAGUCACAGUCTT against Ppib | inactive: -0.429 |
| GGAGAAGGAGUUCCUUAUGTT against Ikbkg | inactive: 1.26 |
| CCUUUGUACAAUGUAUAGATT against Fam76a | inactive: 0.256 |
| GGCAGAAGAAGUAUUCUAUTT against Sgk1 | inactive: -0.223 |
| GGACAUAAAGAAGGAACUUTT against Myt1 | inactive: -1.93 |
| GGAAAUCAAAGAACUGUAUTT against Atl3 | inactive: 1.33 |
| GGCAGAACUACUUUUAUAGTT against Cldn17 | inactive: 0.436 |
| GGCCUUGUAUAAAACACAUTT against Pah | inactive: 0.293 |
| GCCAUUCUAACUCUGCCUCTT against Olfr639 | inactive: 0.232 |
| GCUCUGAGUGAGUCAAAAGTT against Memo1 | inactive: 0.108 |
| GCGUCCUGUUCUGUAUCAATT against Tas2r126 | inactive: 0.386 |
| GGAAGAUUGAAUUUGACUCTT against Rpn2 | inactive: -0.642 |
| GGCAUUAUAAGUGACCUUATT against Smarcc1 | inactive: 1.53 |
| GGCUUAUAGGAGGCUCUCUTT against Prop1 | inactive: -1.27 |
| GGCUCUGGAAAACUCAAAUTT against Heatr5b | inactive: 0.941 |
| GGGCUCAGUAGUAAAUAUGTT against Zswim1 | inactive: -0.0513 |
| GGACACAGCAAGGAAGAAATT against Mad2l1bp | inactive: 0.335 |
| GGCCUAAAUCUAAUCAAAGTT against Itfg1 | inactive: 1.46 |
| GGAGGUGAAGAUGGCCAUGTT against Olfr285 | inactive: 0.349 |
| GCCAAUUUGAAGGUUUUCATT against Tlr8 | inactive: 1.58 |
| CGUGAUCAAAACUCACAUGTT against Slc25a38 | inactive: 0.822 |
| GGCAAUUUUUACACAGAAATT against Pink1 | inactive: -0.925 |

Some values from the results shown.
Under z-score, GGCAUUAUAAGUGACCUUATT against Smarcc1 is listed with inactive: 1.53
Under z-score, GGAAAUCAAAGAACUGUAUTT against Atl3 is listed with inactive: 1.33

(further entries)

| Sequence | z-score |
| --- | --- |
| GGGAACAAGAUGCUCUGUGTT against Sapcd1 | inactive: -0.15 |
| CCUAUACAAAGGGAAGUGCTT against Rspo4 | inactive: -0.797 |
| GGUUUAUCAGAAAGCCUCGTT against Dlgap1 | inactive: 0.48 |
| GGAAAUGGUUAACAUCAUUTT against Mtmr9 | inactive: 0.0103 |
| CGGCAGUCGUGAGACAUAUTT against Camk1d | inactive: -1.01 |
| CCAUGUGAAUGUCUUUAUUTT against Slc6a20a | inactive: 0.943 |
| GGCCUGUUUUGUACUUUUATT against Polr3gl | inactive: 0.149 |
| GGUUCUACAUGUGAAACAATT against Zfp143 | active: -2.15 |
| GCUAUUAUCAUUGUGCAAUTT against Tas2r125 | inactive: -0.0849 |
| GGAGACACUUUCCGGAUUATT against Cbl | inactive: -0.361 |
| CCUGACUCGUCUCAAUAAATT against Ccdc157 | inactive: -0.0789 |
| GGACCAUACUGUUUGAUUATT against Msl3 | inactive: 0.137 |
| GGGUGAUUGAUCACUACUUTT against Olfr279 | inactive: 0.784 |
| GGUUUCAGAAGACUCAGUATT against Dlx5 | inactive: -0.823 |
| GGAGUUGAGGUGAUUAUCUTT against Olfr1222 | active: -2.33 |
| GGCCCUUCUGGACUAUCAUTT against Ccdc83 | active: 3.39 |
| GCCCUUAAAACAUAACCACTT against Fgf9 | inactive: 0.615 |
| GCAGUGGUAGAACAUCCAATT against Bhmt2 | inactive: 0.585 |
| CCGAUGCCAUCAAGUUUGATT against Rps4l | inactive: 0.527 |

Fetched one by one from the list above (2):

| Sequence | z-score |
| --- | --- |
| GGUUUCAGAAGACUCAGUATT against Dlx5 | inactive: -0.823 |
| GGAAAUGGUUAACAUCAUUTT against Mtmr9 | inactive: 0.0103 |
